No constants are given. Whether binding was seen depends on the method and setting. Binding seen in cells or lysates may run through a third protein.

Sequences of proteins named here, by UniProt entry; tags and fusion partners are left off.
UniProt P14618: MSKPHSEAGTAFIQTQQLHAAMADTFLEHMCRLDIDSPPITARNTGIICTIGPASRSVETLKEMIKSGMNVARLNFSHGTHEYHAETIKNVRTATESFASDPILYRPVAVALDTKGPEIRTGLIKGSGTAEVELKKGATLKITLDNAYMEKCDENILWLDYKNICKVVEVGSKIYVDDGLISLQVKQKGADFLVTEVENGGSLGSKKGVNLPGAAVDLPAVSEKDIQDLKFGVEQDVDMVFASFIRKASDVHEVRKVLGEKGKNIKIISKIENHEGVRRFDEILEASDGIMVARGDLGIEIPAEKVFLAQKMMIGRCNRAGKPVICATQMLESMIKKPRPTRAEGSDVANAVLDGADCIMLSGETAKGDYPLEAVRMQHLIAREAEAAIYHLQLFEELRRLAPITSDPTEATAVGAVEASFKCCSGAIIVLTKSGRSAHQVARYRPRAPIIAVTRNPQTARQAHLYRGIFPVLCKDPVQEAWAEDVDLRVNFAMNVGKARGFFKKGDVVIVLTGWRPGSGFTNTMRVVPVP
UniProt P62136: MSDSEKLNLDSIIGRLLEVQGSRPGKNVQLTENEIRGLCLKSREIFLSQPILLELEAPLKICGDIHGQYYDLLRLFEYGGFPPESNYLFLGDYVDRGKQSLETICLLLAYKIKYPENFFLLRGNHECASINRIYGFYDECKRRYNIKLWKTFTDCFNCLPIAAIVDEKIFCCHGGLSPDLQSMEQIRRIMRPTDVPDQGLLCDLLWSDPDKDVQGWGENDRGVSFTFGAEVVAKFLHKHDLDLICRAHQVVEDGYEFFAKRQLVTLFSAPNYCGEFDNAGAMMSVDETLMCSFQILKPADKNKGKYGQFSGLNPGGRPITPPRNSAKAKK

From paper PMC4976202 come the findings set out here.

The target of the test is S-FLAG-streptavidin-binding peptide (SFB)-tagged PKM2 (human) (UniProt P14618). In words: pull-down; SFB-PKM2 pulled down with streptavidin-agarose beads from nuclear lysates/fraction of U87/EGFR cells treated with or without EGF (100 ng/ml) for 4 h; immunoblotting. For orientation: Immunoblotting shows a protein as a band on a membrane.

“PP1 (from UniProt P62136 1-330) (enzyme)”: the binding entry is on record as “no binding”.

B1: Cdc25B (enzyme, UniProt P30305 1-580)
chain: MEVPQPEPAPGSALSPAGVCGGAQRPGHLPGLLLGSHGLLGSPVRAAASSPVTTLTQTMHDLAGLGSETPKSQVGTLLFRSRSRLTHLSLSRRASESSLSSESSESSDAGLCMDSPSPMDPHMAEQTFEQAIQAASRIIRNEQFAIRRFQSMPVRLLGHSPVLRNITNSQAPDGRRKSEAGSGAASSSGEDKENDGFVFKMPWKPTHPSSTHALAEWASRREAFAQRPSSAPDLMCLSPDRKMEVEELSPLALGRFSLTPAEGDTEEDDGFVDILESDLKDDDAVPPGMESLISAPLVKTLEKEEEKDLVMYSKCQRLFRSPSMPCSVIRPILKRLERPQDRDTPVQNKRRRSVTPPEEQQEAEEPKARVLRSKSLCHDEIENLLDSDHRELIGDYSKAFLLQTVDGKHQDLKYISPETMVALLTGKFSNIVDKFVIVDCRYPYEYEGGHIKTAVNLPLERDAESFLLKSPIAPCSLDKRVILIFHCEFSSERGPRMCRFIRERDRAVNDYPSLYYPEMYILKGGYKEFFPQHPNFCEPQDYRPMNHEAFKDELKTFRLKTRSWAGERSRRELCSRLQDQ
In the case of B1, the binding entry is given as “no binding”.

B2: Cdc25C (enzyme, UniProt P30307 1-473)
chain: MSTELFSSTREEGSSGSGPSFRSNQRKMLNLLLERDTSFTVCPDVPRTPVGKFLGDSANLSILSGGTPKRCLDLSNLSSGEITATQLTTSADLDETGHLDSSGLQEVHLAGMNHDQHLMKCSPAQLLCSTPNGLDRGHRKRDAMCSSSANKENDNGNLVDSEMKYLGSPITTVPKLDKNPNLGEDQAEEISDELMEFSLKDQEAKVSRSGLYRSPSMPENLNRPRLKQVEKFKDNTIPDKVKKKYFSGQGKLRKGLCLKKTVSLCDITITQMLEEDSNQGHLIGDFSKVCALPTVSGKHQDLKYVNPETVAALLSGKFQGLIEKFYVIDCRYPYEYLGGHIQGALNLYSQEELFNFFLKKPIVPLDTQKRIIIVFHCEFSSERGPRMCRCLREEDRSLNQYPALYYPELYILKGGYRDFFPEYMELCEPQSYCPMHHQDHKTELLRCRSQSKVQEGERQLREQIALLVKDMSP
On to B2, for which the binding result is recorded as “no binding”.
